# The supplement of paper PMC7666118
# Chains of the proteins cited; added tags and fusions are not shown. Lines headed by an entry give the natural chain unless they say otherwise; changes in a name come on top.
# UniProt P52272: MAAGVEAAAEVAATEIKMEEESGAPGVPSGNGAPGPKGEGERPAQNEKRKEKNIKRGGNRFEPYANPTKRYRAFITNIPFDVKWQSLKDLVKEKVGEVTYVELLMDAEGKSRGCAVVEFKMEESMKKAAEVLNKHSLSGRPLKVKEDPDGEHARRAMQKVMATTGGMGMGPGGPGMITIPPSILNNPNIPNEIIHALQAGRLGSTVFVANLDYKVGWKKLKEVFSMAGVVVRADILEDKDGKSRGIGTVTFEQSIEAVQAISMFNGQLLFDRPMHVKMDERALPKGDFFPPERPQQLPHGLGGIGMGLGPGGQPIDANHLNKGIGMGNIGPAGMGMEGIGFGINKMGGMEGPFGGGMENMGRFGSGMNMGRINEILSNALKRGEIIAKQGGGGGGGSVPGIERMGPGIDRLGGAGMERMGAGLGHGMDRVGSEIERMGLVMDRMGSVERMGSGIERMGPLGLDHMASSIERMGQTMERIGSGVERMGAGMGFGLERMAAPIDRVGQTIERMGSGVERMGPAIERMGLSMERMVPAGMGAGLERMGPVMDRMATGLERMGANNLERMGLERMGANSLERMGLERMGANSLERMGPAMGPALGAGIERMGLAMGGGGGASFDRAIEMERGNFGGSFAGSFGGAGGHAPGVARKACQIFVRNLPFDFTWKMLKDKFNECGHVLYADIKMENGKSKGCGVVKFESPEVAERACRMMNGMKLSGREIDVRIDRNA
# UniProt P50748: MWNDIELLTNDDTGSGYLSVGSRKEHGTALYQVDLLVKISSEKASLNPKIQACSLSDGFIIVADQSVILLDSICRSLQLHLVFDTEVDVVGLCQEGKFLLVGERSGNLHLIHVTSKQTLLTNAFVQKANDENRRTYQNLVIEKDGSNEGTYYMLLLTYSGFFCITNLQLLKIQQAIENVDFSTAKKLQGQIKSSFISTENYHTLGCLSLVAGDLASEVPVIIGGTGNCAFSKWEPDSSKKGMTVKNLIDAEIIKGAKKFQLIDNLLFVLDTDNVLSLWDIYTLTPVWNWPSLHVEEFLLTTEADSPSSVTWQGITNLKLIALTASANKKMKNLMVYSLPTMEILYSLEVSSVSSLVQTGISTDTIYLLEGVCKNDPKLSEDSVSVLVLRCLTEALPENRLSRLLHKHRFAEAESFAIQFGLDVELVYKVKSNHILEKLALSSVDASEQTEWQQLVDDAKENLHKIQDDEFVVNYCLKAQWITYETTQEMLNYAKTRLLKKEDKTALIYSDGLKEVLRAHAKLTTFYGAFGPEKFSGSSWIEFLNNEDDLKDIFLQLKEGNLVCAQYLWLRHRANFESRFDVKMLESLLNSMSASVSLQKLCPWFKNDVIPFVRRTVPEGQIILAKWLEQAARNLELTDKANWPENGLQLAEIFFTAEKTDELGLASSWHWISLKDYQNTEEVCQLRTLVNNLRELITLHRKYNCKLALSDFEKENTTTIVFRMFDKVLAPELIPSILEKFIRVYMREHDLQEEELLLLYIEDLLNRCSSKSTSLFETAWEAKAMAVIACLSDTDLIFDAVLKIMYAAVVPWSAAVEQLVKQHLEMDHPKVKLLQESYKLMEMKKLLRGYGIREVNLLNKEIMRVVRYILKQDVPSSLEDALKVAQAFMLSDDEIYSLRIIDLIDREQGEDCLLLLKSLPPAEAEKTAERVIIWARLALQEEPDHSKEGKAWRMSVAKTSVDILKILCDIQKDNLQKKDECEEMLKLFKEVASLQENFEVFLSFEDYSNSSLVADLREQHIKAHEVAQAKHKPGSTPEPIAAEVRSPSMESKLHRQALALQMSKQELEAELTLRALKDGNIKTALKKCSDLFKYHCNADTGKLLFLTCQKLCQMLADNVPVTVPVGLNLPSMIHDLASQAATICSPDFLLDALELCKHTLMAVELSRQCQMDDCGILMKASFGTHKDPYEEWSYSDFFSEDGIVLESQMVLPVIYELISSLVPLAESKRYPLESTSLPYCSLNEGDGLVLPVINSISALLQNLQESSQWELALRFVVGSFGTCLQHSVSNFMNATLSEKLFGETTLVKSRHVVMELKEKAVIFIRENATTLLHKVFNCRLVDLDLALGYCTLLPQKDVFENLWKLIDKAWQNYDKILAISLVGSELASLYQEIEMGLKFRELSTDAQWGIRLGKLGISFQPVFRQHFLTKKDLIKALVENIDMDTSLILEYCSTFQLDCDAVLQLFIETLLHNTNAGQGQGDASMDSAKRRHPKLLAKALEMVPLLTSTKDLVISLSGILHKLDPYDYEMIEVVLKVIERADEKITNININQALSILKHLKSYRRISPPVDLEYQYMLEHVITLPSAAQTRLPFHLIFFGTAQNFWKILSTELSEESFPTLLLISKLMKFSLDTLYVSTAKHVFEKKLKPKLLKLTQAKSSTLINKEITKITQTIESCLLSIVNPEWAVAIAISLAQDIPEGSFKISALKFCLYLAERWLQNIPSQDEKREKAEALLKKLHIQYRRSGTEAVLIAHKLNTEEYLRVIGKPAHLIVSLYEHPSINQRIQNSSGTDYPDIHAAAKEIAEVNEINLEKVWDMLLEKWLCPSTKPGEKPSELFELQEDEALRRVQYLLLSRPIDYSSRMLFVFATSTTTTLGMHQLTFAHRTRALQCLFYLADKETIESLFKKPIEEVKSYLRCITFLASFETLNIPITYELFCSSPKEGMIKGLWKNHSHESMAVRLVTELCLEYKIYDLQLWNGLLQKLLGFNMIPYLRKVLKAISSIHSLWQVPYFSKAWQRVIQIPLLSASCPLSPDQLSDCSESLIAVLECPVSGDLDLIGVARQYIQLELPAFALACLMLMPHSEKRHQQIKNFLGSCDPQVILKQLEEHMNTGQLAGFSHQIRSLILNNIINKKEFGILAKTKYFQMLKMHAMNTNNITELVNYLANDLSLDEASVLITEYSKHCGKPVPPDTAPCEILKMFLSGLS
# UniProt Q96BZ8: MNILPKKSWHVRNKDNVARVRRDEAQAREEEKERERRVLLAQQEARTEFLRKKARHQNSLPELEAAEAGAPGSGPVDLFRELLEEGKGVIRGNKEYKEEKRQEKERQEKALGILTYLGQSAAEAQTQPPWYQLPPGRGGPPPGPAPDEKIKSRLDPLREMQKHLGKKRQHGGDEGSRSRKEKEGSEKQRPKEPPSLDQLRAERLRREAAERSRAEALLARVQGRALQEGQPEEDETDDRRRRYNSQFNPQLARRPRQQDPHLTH
# UniProt Q13907: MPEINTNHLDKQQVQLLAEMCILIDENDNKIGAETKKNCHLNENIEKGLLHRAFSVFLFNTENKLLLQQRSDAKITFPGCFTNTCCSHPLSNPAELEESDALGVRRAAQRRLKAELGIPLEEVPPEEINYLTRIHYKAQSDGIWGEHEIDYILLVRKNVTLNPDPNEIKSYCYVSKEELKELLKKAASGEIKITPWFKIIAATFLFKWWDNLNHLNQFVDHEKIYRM
# UniProt Q13123, whole entry: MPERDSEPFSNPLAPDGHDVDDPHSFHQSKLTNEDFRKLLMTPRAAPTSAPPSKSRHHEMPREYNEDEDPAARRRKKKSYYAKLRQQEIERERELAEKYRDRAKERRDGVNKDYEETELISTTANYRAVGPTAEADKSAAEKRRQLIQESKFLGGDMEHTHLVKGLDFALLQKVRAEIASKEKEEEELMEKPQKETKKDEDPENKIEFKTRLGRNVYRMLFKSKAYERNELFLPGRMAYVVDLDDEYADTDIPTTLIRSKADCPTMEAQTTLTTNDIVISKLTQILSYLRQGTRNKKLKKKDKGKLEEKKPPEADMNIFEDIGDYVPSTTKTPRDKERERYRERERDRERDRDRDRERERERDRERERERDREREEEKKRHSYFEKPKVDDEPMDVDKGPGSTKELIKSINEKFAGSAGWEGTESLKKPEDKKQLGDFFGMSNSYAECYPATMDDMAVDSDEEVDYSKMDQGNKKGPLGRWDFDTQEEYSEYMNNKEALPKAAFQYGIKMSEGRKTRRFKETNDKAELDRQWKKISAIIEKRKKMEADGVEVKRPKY
# UniProt P53671: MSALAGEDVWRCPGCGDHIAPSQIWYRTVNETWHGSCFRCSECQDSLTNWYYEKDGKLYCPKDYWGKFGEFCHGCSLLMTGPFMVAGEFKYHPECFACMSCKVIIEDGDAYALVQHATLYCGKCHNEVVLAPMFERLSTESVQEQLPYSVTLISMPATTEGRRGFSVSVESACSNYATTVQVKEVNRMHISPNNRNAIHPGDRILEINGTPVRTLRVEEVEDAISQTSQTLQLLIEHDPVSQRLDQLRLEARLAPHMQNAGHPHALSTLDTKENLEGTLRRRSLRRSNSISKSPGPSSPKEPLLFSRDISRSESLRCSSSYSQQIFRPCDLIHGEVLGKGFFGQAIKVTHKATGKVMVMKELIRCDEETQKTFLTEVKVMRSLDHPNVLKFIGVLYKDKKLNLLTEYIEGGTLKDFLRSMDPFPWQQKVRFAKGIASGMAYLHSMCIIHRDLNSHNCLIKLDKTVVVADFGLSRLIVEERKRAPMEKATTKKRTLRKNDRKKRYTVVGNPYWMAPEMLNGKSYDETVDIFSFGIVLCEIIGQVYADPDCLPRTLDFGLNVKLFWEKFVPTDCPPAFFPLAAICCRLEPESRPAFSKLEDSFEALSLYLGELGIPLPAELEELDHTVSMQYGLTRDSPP
# UniProt Q9P2K6: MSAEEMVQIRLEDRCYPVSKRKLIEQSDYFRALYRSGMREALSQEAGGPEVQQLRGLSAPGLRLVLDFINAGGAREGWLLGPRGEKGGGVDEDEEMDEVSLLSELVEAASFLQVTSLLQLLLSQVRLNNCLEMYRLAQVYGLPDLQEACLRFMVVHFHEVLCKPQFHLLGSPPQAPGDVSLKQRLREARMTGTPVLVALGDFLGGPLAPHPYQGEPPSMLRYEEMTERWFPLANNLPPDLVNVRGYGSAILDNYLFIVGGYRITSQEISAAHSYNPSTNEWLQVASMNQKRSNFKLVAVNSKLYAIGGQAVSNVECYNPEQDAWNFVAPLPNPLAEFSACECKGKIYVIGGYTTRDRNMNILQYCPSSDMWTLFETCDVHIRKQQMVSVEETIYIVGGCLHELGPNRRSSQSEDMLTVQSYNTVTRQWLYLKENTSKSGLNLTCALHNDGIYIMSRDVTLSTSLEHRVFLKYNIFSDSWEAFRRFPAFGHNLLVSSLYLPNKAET
# UniProt P28838: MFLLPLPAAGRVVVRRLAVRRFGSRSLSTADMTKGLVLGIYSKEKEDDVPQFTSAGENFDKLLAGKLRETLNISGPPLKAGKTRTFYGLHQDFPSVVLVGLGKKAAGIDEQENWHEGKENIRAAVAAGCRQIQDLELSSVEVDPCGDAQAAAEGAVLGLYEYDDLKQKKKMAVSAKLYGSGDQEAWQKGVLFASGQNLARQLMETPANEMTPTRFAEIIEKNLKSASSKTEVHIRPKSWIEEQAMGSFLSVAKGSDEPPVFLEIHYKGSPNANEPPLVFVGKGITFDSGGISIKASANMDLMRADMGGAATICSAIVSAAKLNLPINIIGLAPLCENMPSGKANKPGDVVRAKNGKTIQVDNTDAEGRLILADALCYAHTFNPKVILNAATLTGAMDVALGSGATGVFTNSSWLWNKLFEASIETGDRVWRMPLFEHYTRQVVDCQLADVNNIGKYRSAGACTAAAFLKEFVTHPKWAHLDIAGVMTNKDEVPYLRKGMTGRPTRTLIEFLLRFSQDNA
# The other results are listed elsewhere or left out.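 The calls were made as follows: active = dose-dependent thermal stabilisation significant by F-test of dose-response against flat model at 10% FDR; inactive = not significant.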
# Compound: Nc1nc2c(ncn2[C@@H]2O[C@H](COP(=O)(O)OP(=O)(O)OP(=O)(O)O)[C@@H](O)[C@H]2O)c(=O)[nH]1
# Test: dose-dependent thermal stabilisation call (2D-TPP, DLPTP, 10% FDR) (binary (1 = stabilised)); higher = stabilised by the compound
# Conditions: system: Jurkat gel-filtered lysate; concentration range 1-500 µM
row,Target,dose-dependent thermal stabilisation call
1,HNRNPM (UniProt P52272),inactive: 0
2,HUWE1 (UniProt Q7Z6Z7),inactive: 0
3,KNTC1 (UniProt P50748),active: 1
4,LENG1 (UniProt Q96BZ8),inactive: 0
5,IDI1 (UniProt Q13907),inactive: 0
6,IK (UniProt Q13123),inactive: 0
7,LIMK2 (UniProt P53671),active: 1
8,KLHL42 (UniProt Q9P2K6),inactive: 0
9,LAP3 (UniProt P28838),inactive: 0

# Two entries drawn at random from those above:
row,Target,dose-dependent thermal stabilisation call
4,LENG1 (UniProt Q96BZ8),inactive: 0
7,LIMK2 (UniProt P53671),active: 1
